In US20250295803A1, “5T4 ANTIBODY-DRUG CONJUGATES AND USES THEREOF” (EXELIXIS, INC., priority 2022, published 2025):
Changes are numbered by the printed parent chain. These are yes or no findings as the source states them, for the method shown. Some results given as binding are weak or reduced against the parent protein; the word gives no strength. Each block holds one binder with its values, some of them ahead of it.

Molecular target: T1, human 5T4 produced internally (Lot 20-019-62) (human) (UniProt Q13641)
T1 sequence: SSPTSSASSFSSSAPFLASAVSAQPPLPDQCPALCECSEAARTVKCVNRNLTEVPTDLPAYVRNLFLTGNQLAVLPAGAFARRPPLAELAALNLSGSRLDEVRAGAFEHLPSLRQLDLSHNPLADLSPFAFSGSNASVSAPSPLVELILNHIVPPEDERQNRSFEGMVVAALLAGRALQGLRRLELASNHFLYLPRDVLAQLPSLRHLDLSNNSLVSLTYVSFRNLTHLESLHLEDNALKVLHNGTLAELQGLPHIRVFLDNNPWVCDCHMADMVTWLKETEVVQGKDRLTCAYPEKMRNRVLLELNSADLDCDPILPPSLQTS
Assay: Octet, antibody on AHC sensors, human 5T4 in solution (monovalent); internal lot

binding: binds
B1: mAbA15 (antibody, V domains shown)
VH: EVQLVESGGGLVQPGGSLRLSCAASGFTFSSYYIHWVRQAPGKGLEWVAYITSTGSYTEYADSVKGRFTISADTSKNTAYLQMNSLRAEDTAVYYCARYDRSTRYSGLDYWGQGTLVTVSS
VL: DIQMTQSPSSLSASVGDRVTITCRASQSVSSAVAWYQQKPGKAPKLLIYSASSLYSGVPSRFSGSRSGTDFTLTISSLQPEDFATYYCQQAYATPVTFGQGTKVEIKR
notes: also called Antibody mAbA15

binding: binds
B2: mAbA17 (antibody, V domains shown)
VH: EVQLVESGGGLVQPGGSLRLSCAASGFTFSRYWIHWVRQAPGKGLEWVAAIFPYSGSTLYADSVKGRFTISADTSKNTAYLQMNSLRAEDTAVYYCARSPSRSILPSGLDYWGQGTLVTVSS
VL: B1 VL with A91G, Y92D, A93G, T94S, V96Y
notes: also called Antibody mAbA17
